Results on 25 molecules are retold here after PubChem BioAssay AID463193 (University of Pittsburgh Molecular Library Screening Center, 2010).

Some of the results follow.

This assay is described as follows: autophagy modulators in MEF cells, primary screen, imaging, high-content, MEF GFP-LC3 (AID 463193).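 Note: cell loss after 18 h compound exposure.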 To be noted: MEF GFP-LC3 puncta imaging, measured here: cell loss, nuclei count, at 10 µM.
`COc1ccc(NC2CCN(CCc3ccccc3)CC2)c(OC)c1`: the toxicity was found to be 9.73%.

Consider `COc1ccc(C(=O)NCC2(N3CCCCC3)CCCCC2)c(OC)c1OC`, for which the toxicity amounted to 21.3%. As for `O=C(NCC1(N2CCOCC2)CCCCC1)c1cc2ccccc2o1`, the toxicity was -29.7%.

`CCOC(=O)N1CCC(Nc2ccc(OC)cc2)CC1`: the toxicity is -5.05%. As for `O=C(OC1CN2CCC1CC2)C1c2ccccc2Oc2ccccc21` (stereo not given), the figure is 7.17%. As for `CN(C)c1cccc(C(=O)NCC2(N3CCCCC3)CCCCC2)c1`, the figure is 9.76%. As for `COc1ccc(CN(CCCl)CCCl)cc1Cl`, the toxicity is -7.03%. Turning to `CC(C)c1ccc(NC2CCN(C(=O)OC(C)(C)C)CC2)cc1`, the toxicity is -1.76%. The figure for `CN1CCC(Nc2cccc(F)c2)CC1` is 5.94%; for `O=C(NCC1(N2CCCCC2)CCCCC1)c1cccc([N+](=O)[O-])c1` it is -2.61%; for `N#CC1(Nc2ccccc2)CCN(CCc2ccccc2)CC1` it is 36.2%. As for `CN1CCN(CCOC(=O)C(O)(c2ccccc2)c2ccccc2)CC1`, the figure is -6.45%. The figure for `COc1ccc(NC2CCN(C(=O)OC(C)(C)C)CC2)cc1` is 1.72%. In the case of `O=C(NCC1(N2CCOCC2)CCCCC1)c1cc(=O)[nH]c2ccccc12`, the toxicity is -2.77%. For `N#Cc1ccc(C(=O)NCC2(N3CCCCC3)CCCCC2)cc1`, the toxicity was -10.2%. As for `c1ccc(CN2CCC(Nc3ccccc3)CC2)cc1`, the figure is 12.1%; as for `COc1ccc(C(=O)NCC2(N3CCOCC3)CCCCC2)cc1OC`, -0.911%. The figure for `N/C(=N\O)c1c(N)no[n+]1[O-]` is -7.29%; for `O=C(OC1CN2CCC1CC2)C1c2ccccc2C=Cc2ccccc21` (stereo not given) it is -0.54%; for `CCOc1ncccc1C(=O)NCC1(N2CCOCC2)CCCCC1` it is 10.5%.

As for `CC(C)(C)OC(=O)N1CCC(Nc2ccccc2)CC1`, the toxicity was -1.03%.

In the case of `CCC(CO)(C(=O)OC1CN2CCC1CC2)c1ccccc1` (stereo not given), the toxicity was -8.08%. As for `COc1cc(OC)cc(C(=O)NCC2(N3CCOCC3)CCCCC2)c1`, the figure is 0.615%; as for `CCN1CCC(Nc2cccc(F)c2)CC1`, 10.6%. As for `CN(C)c1ccc(C(=O)NCC2(N3CCCCC3)CCCCC2)cc1`, the figure is 2.05%.
